Values from PubChem BioAssay AID743121 (NCATS, 2013).
This is a random part of about 26,000 reagents. Over the whole deposit, 167 (0.63%) were called active. 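Calls are per gene from RSA p-values that are not deposited; an individual active-marked siRNA can sensitise only weakly.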 Reagents against one gene are numbered here. No sequences are given here.

- Purpose: 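Partners whose loss is lethal together with topoisomerase I blockade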 (primary screen)
- System: MDA-MB-231 cells, a human breast cancer line
- Knock-down reagent: single siRNA against human genes, 20 nM siRNA (0.8 pmol per well)
- Timing: 120 h (drug added 48 h after transfection, read 72 h later)
- Conditions: camptothecin 20 nM (about EC30) for 72 h; vehicle 0.1% DMSO in parallel plates
- Read-out: 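CellTiter-Glo ATP signal, scaled to control siRNA as percent viability; sensitisation given as log2 of untreated divided by camptothecin-treated viability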
- Reading the numbers: log2 vehicle/camptothecin viability: higher = stronger sensitisation to camptothecin; viability with camptothecin and viability without drug: higher = more viable cells
- Rule for the call: 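Active genes have an RSA gene-level p-value below 0.001, computed from the ratios of their separate siRNAs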

Target gene | siRNA no. | log2 vehicle/camptothecin viability | viability with camptothecin (% of control) | viability without drug (% of control) | Call
MAX | 1 | -0.245 | 108 | 91.5 | inactive
MAX | 2 | -0.714 | 73.3 | 44.7 | inactive
MAX | 3 | -0.063 | 47.2 | 45.2 | inactive
MAX | 4 | -0.488 | 85.5 | 61 | inactive
MAX | 5 | -0.434 | 100 | 74.4 | inactive
MAX | 6 | -0.408 | 98.5 | 74.3 | inactive
MAX | 7 | -0.557 | 82.4 | 56 | inactive
MAX | 8 | 0.156 | 101 | 112 | inactive
IL5 | 1 | -0.16 | 74.2 | 66.4 | inactive
IL5 | 2 | 0.1 | 83.6 | 89.6 | inactive
IL5 | 3 | -0.241 | 90.1 | 76.2 | inactive
IL5 | 4 | -0.455 | 85 | 62 | inactive
LPAL2 | 1 | -0.81 | 58.1 | 33.2 | inactive
LPAL2 | 2 | -0.0269 | 86.5 | 84.9 | inactive
LPAL2 | 3 | 0.417 | 60.5 | 80.8 | inactive
GZMM | 1 | -0.0354 | 92.7 | 90.4 | inactive
GZMM | 2 | -0.149 | 42 | 37.9 | inactive
GZMM | 3 | -0.466 | 17.9 | 13 | inactive

The list goes on, starting with the last 2 of the part before.
Target gene | siRNA no. | log2 vehicle/camptothecin viability | viability with camptothecin (% of control) | viability without drug (% of control) | Call
GZMM | 2 | -0.149 | 42 | 37.9 | inactive
GZMM | 3 | -0.466 | 17.9 | 13 | inactive
GPR119 | 1 | -0.0925 | 60.7 | 56.9 | inactive
GPR119 | 2 | -0.161 | 76.2 | 68.2 | inactive
GPR119 | 3 | -0.273 | 104 | 86.1 | inactive
GPR119 | 4 | -0.329 | 71.9 | 57.2 | inactive
USF1 | 1 | -0.427 | 111 | 82.4 | inactive
USF1 | 2 | -0.0978 | 60.7 | 56.7 | inactive
USF1 | 3 | -0.233 | 71.3 | 60.6 | inactive
SLC25A29 | 1 | 0.387 | 44 | 57.5 | inactive
SLC25A29 | 2 | -0.142 | 76.3 | 69.2 | inactive
SLC25A29 | 3 | -0.122 | 74.7 | 68.7 | inactive
